Results on 37 targets are retold here after the supplement of paper PMC12819154, “High-throughput peptide-centric local stability assay extends protein–ligand identification to membrane proteins, tissues and bacteria” (Nature Structural & Molecular Biology, 2025).

Sequences of proteins named here, by UniProt entry; tags and fusion partners are left off. A change or cut given only in a name is not applied to a line headed by its entry.
UniProt Q8IV48: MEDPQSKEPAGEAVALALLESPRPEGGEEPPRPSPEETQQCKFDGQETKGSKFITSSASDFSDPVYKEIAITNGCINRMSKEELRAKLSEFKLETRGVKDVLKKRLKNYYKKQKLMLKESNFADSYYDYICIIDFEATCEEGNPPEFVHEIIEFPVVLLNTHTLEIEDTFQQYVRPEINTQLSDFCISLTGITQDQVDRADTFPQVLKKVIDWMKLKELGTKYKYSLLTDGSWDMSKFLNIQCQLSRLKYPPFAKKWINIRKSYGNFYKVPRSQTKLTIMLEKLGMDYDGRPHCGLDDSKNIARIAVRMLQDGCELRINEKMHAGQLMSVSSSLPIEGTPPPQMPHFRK
UniProt Q8IZP0: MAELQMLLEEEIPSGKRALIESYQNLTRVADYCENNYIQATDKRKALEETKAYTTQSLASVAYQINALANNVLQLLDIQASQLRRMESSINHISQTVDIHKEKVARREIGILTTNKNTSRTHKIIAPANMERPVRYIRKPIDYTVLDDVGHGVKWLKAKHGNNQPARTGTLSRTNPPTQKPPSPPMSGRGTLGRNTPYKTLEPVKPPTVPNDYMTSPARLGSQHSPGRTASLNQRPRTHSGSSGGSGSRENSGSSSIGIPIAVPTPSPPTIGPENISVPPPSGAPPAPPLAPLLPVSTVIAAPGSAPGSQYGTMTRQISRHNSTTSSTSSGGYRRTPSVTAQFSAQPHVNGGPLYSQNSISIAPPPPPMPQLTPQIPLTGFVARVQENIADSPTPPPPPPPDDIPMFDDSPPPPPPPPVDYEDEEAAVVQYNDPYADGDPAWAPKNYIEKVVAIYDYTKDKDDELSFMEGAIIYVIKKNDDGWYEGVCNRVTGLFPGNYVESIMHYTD
UniProt Q8N264: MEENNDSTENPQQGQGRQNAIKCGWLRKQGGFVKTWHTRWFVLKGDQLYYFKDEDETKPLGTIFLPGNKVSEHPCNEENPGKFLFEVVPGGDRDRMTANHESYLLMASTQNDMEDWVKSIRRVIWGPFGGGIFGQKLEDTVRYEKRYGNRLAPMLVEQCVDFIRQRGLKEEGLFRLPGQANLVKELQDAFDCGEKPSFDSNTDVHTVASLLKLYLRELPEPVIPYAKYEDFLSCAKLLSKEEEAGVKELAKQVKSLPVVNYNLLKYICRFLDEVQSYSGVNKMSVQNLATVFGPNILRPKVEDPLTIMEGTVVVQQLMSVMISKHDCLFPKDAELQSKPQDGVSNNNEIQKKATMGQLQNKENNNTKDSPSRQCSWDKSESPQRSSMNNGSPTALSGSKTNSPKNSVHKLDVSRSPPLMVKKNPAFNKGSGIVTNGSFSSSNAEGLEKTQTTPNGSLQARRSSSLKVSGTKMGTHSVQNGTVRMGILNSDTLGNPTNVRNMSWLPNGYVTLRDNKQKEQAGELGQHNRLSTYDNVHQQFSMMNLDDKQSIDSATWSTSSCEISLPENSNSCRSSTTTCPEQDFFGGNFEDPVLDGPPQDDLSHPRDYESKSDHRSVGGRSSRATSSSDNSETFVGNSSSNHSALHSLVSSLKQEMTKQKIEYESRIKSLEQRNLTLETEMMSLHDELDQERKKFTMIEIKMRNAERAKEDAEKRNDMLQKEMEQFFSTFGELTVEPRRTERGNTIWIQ
UniProt Q8N2W9: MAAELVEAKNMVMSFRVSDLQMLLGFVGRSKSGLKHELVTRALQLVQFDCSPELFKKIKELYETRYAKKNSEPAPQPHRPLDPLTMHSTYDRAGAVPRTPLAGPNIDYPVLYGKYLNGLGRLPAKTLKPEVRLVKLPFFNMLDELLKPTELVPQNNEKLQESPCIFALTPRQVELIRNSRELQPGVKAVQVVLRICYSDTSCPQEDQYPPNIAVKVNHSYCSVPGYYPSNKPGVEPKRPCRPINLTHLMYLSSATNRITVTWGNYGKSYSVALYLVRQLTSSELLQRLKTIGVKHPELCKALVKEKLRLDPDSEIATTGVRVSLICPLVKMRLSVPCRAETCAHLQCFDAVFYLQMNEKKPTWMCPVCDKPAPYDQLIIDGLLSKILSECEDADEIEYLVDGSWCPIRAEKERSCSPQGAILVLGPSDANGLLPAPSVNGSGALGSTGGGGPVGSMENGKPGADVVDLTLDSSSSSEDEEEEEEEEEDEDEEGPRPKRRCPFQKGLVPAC
UniProt Q86YT6, whole entry, looked up: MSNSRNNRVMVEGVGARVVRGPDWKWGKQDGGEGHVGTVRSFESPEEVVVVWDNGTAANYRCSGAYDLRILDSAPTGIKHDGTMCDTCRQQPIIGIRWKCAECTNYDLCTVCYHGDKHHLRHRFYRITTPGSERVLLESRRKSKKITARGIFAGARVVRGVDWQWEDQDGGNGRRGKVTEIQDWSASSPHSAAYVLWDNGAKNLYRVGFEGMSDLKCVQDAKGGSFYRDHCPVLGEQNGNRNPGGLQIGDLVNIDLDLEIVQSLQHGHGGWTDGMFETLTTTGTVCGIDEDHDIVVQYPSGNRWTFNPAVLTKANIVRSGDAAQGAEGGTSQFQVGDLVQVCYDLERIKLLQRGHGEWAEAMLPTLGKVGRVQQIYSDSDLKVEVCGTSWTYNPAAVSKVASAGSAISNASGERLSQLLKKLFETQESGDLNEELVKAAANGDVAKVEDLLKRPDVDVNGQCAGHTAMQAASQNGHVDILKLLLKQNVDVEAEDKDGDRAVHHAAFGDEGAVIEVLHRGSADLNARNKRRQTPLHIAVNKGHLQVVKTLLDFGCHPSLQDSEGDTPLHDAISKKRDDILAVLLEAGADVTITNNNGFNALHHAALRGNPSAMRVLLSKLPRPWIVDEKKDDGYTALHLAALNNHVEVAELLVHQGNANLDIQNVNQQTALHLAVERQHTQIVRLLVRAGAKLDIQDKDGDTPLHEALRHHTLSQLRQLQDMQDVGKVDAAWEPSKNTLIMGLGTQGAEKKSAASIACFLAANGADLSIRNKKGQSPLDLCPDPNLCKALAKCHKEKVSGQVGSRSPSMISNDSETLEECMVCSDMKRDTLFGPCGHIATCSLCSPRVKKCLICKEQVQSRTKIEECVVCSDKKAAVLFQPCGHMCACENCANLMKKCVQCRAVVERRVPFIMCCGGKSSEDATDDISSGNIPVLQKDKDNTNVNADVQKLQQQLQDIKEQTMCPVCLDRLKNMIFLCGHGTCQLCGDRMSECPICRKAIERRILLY
UniProt Q8IVI9: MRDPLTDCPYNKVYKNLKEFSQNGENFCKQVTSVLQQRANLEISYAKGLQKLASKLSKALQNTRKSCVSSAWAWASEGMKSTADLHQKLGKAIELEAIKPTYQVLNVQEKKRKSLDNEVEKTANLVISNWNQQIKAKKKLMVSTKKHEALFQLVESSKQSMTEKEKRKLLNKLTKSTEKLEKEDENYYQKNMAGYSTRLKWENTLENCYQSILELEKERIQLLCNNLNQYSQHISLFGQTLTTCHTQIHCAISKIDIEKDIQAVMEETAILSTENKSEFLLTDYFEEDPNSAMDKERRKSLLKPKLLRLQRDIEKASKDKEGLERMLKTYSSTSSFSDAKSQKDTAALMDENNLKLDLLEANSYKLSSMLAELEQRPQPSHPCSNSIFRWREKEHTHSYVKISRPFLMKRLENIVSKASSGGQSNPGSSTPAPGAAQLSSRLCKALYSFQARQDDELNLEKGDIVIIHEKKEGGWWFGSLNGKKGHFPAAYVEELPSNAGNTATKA
UniProt Q8IVB5: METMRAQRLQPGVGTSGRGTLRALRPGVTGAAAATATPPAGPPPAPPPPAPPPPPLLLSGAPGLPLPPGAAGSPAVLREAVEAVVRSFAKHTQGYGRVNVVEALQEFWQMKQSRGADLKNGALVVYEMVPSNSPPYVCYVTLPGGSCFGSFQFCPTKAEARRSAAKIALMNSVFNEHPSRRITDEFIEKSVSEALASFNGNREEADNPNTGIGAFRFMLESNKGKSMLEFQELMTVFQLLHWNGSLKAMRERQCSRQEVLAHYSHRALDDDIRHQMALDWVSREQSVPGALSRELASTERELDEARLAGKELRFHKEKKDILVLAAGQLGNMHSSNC
UniProt Q8IZQ8: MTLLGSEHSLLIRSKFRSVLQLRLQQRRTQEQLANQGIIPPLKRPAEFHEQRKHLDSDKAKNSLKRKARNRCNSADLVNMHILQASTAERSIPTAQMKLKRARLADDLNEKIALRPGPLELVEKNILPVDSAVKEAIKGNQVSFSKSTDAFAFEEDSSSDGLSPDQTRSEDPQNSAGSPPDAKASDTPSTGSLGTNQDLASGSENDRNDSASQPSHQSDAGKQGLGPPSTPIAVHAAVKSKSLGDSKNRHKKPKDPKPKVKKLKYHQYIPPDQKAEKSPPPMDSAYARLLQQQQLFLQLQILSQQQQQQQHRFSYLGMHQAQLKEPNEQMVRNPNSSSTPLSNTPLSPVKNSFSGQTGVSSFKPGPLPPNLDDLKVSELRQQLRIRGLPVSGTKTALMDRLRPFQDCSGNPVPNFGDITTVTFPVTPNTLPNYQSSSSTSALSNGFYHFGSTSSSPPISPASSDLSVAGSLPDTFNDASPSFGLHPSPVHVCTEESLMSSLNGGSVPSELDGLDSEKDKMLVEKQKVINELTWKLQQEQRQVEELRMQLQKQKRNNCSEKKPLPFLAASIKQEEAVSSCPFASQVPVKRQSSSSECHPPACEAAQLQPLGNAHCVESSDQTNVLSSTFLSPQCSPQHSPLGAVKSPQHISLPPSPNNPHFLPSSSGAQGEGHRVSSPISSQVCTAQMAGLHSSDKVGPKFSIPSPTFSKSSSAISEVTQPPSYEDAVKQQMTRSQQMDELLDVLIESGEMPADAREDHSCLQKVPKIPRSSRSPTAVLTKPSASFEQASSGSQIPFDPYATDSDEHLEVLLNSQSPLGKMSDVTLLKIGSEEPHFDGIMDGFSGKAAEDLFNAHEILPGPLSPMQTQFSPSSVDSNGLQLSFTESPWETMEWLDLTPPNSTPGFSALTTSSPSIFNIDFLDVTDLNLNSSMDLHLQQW
UniProt Q8IZM8: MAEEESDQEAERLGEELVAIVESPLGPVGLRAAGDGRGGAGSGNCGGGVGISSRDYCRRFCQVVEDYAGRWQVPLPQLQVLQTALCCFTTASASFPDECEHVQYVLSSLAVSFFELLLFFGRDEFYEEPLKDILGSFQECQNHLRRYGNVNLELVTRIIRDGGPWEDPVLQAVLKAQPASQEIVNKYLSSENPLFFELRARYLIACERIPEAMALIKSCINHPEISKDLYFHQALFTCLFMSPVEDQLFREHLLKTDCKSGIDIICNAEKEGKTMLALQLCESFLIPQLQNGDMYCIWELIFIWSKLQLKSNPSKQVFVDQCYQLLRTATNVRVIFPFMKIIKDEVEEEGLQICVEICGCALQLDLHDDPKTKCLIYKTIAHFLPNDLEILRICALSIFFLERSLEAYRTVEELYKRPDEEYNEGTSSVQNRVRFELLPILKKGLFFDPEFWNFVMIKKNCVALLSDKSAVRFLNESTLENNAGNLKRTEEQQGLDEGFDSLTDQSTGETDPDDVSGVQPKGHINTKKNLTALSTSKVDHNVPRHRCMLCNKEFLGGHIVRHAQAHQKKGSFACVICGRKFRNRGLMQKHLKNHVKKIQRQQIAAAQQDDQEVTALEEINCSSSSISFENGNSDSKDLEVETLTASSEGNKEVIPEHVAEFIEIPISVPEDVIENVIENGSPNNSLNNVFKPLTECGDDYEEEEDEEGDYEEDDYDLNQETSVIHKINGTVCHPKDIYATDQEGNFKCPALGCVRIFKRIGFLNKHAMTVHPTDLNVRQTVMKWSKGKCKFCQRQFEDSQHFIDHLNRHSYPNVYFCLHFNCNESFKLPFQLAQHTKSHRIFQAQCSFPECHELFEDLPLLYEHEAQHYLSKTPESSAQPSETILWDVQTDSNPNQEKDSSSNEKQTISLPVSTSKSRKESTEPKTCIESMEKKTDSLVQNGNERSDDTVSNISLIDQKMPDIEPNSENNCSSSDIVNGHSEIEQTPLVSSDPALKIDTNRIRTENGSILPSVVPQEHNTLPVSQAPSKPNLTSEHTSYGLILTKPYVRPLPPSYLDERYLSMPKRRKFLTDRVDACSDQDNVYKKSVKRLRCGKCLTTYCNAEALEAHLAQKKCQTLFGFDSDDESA
UniProt Q8IZ26: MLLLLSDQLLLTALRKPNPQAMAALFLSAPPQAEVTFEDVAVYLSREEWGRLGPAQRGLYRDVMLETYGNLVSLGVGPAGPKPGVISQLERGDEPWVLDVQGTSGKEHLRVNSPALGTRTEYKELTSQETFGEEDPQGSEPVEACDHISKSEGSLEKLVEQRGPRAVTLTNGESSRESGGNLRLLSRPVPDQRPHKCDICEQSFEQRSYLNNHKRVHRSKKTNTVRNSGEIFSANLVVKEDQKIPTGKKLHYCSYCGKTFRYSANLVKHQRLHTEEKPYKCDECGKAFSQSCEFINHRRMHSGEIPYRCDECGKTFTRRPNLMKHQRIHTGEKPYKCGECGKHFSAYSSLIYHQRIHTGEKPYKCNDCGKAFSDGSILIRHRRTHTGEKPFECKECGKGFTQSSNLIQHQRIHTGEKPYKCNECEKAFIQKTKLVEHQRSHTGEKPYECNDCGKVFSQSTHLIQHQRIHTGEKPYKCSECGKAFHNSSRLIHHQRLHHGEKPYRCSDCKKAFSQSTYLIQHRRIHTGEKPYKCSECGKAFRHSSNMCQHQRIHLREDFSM

The other results are listed elsewhere or left out. Small differences around the control level are noise.

Compound in this test: CN[C@@H]1C[C@H]2O[C@@](C)([C@@H]1OC)n1c3ccccc3c3c4c(c5c6ccccc6n2c5c31)C(=O)NC4 [staurosporine]
Put plainly: log2 fold change of tryptic peptide abundance, ligand vs vehicle (limited proteolysis) (log2 ratio); higher = more trypsin-susceptible (destabilized). Particulars: ligand concentration: 20 uM; sample: K562 cleared lysate; digestion: 4 min, 22 C (HT-PELSA RT4min, Orbitrap Astral).
Consider “VRK2 (peptide sequence: KGHNGTIEFTSLDAHK, peptide start residue: 208) (UniProt Q86Y07)”, for which the log2 fold change was found to be 0.629.
In the case of “GPBP1 (peptide sequence: GLVPKPAAPPTKPTQWK, peptide start residue: 210) (UniProt Q86WP2)”, the log2 fold change was 0.236.
For “EXOC8 (peptide sequence: MNLMTPEALGK, peptide start residue: 578) (UniProt Q8IYI6)”, the log2 fold change is 0.899.
For the target “ERI1 (peptide sequence: KSYGNFYK, peptide start residue: 262) (UniProt Q8IV48)”, the log2 fold change was 0.476.
In the case of “ADGRG2 (peptide sequence: RYLCCGKLR, peptide start residue: 892) (UniProt Q8IZP9)”, the log2 fold change turned out to be 0.235.
As for “UniProt Q8N1W2 (peptide sequence: TPRPELNVAPYDPHFPAPAR, peptide start residue: 177)”, the figure is -0.0814; as for “UniProt Q8IYF3 (peptide sequence: VLILHTDMLLQR, peptide start residue: 374)”, 0.334; as for “ABI1 (peptide sequence: VADYCENNYIQATDKR, peptide start residue: 29) (UniProt Q8IZP0)”, -0.216.
As to “ARHGAP24 (peptide sequence: SLPVVNYNLLK, peptide start residue: 255) (UniProt Q8N264)”, the log2 fold change is -0.188.
Take “PHF6 (peptide sequence: TVLQEIKR, peptide start residue: 267) (UniProt Q8IWS0)”: the log2 fold change is -0.189.
With “CHD1L (peptide sequence: NKGQDLLALIVAQHR, peptide start residue: 792) (UniProt Q86WJ1)”, the log2 fold change was found to be 0.148.
On to “RNF168 (peptide sequence: QTHTKHPTPER, peptide start residue: 502) (UniProt Q8IYW5)”, for which the log2 fold change is 0.882.
For the target “PIAS4 (peptide sequence: NMVMSFR, peptide start residue: 10) (UniProt Q8N2W9)”, the log2 fold change turned out to be 0.187.
As for “SFR1 (peptide sequence: SKNDLSQLQLLIKK, peptide start residue: 181) (UniProt Q86XK3)”, the figure is 0.867; as for “LRRC47 (peptide sequence: VLHVSENPVPLTVRVSPEVR, peptide start residue: 311) (UniProt Q8N1G4)”, 0.511.
Consider “UniProt Q8N163 (peptide sequence: ETPEHPLK, peptide start residue: 337)”, for which the log2 fold change stood at 0.508.
Take “UniProt Q8IV76 (peptide sequence: VQICLQNPR, peptide start residue: 583)”: the log2 fold change is -0.124.
As to “ZC3H3 (peptide sequence: TSGQPSDAGSRPLLR, peptide start residue: 619) (UniProt Q8IXZ2)”, the log2 fold change is -0.357.
“MIB1 (peptide sequence: KLFETQESGDLNEELVK, peptide start residue: 421) (UniProt Q86YT6)”: the log2 fold change was -0.371.
As to “UniProt Q86WT1 (peptide sequence: EAIGFYEPIVKK, peptide start residue: 477)”, the log2 fold change is -0.388.
As to “UniProt Q8IV42 (peptide sequence: YEVYQLAR, peptide start residue: 161)”, the log2 fold change is -0.335.
As for “CCAR1 (peptide sequence: GYKQQLVEK, peptide start residue: 592) (UniProt Q8IX12)”, the log2 fold change came to 0.677.
As to “PROSER2 (peptide sequence: FPSNIIVTNGAAREPR, peptide start residue: 253) (UniProt Q86WR7)”, the log2 fold change was 0.267.
Regarding “UniProt Q8IXX5 (peptide sequence: HYTLDASLPLR, peptide start residue: 177)”, the log2 fold change is -0.201.
As for “NOSTRIN (peptide sequence: NLKEFSQNGENFCK, peptide start residue: 16) (UniProt Q8IVI9)”, the log2 fold change is -0.908.
Turning to “HSCB (peptide sequence: LHGIEIPERTDYEMDR, peptide start residue: 144) (UniProt Q8IWL3)”, the log2 fold change amounted to 0.336.
As to “LIX1L (peptide sequence: IALMNSVFNEHPSRR, peptide start residue: 167) (UniProt Q8IVB5)”, the log2 fold change is 0.12.
Turning to “UniProt Q8IZQ8 (peptide sequence: YHQYIPPDQK, peptide start residue: 294)”, the log2 fold change is -0.304.
In the case of “PDSS2 (peptide sequence: LVGTQHPLLTTAR, peptide start residue: 87) (UniProt Q86YH6)”, the log2 fold change was 0.179.
As for “UniProt Q8IZM8 (peptide sequence: QTISLPVSTSK, peptide start residue: 906)”, the figure is -0.236; as for “CKAP2L (peptide sequence: INGMPEVQDMK, peptide start residue: 672) (UniProt Q8IYA6)”, 0.675; as for “UniProt Q8IZ26 (peptide sequence: AVTLTNGESSR, peptide start residue: 166)”, -0.246.
Regarding “NDUFAF2 (peptide sequence: ETSEELLPPPVQTQIK, peptide start residue: 115) (UniProt Q8N183)”, the log2 fold change was -0.373.
The same measure for “UniProt Q86YR5 (peptide sequence: PAQALTFAK, peptide start residue: 345)”: 0.706.
“CEP57L1 (peptide sequence: NSSFHPIR, peptide start residue: 436) (UniProt Q8IYX8)”: the log2 fold change stood at 0.461.
The same measure for “CHERP (peptide sequence: LPPPMPPSER, peptide start residue: 676) (UniProt Q8IWX8)”: 0.184; for “FBXW8 (peptide sequence: RRPEAAER, peptide start residue: 27) (UniProt Q8N3Y1)”: 0.712.
